# Source: PubChem BioAssay (NCATS)
# By UniProt entry, the sequences of proteins in these tests, tags left out. Where a name states a change or a piece, a line headed by the entry shows the natural chain unless it says otherwise.
# UniProt P16473, whole entry, looked up: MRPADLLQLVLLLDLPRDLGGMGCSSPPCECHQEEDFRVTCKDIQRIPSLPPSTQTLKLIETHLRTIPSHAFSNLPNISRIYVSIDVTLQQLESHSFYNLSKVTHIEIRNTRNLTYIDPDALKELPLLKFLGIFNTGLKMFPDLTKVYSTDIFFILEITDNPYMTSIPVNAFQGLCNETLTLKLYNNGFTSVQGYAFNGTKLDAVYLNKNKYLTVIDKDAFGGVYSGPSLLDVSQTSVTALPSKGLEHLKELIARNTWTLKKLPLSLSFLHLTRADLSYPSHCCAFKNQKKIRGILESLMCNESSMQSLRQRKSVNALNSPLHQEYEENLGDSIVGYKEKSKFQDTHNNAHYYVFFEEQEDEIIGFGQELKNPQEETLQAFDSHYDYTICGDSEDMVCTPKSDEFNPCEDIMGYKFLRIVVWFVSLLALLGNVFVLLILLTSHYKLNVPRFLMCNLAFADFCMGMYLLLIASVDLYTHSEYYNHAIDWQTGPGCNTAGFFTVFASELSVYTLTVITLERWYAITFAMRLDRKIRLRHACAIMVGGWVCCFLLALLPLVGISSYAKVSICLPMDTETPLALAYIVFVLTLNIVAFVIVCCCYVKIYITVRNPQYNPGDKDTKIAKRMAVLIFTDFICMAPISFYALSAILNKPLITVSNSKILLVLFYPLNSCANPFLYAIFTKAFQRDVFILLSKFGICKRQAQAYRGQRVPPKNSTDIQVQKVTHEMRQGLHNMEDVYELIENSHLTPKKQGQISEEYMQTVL
# UniProt Q96QE3: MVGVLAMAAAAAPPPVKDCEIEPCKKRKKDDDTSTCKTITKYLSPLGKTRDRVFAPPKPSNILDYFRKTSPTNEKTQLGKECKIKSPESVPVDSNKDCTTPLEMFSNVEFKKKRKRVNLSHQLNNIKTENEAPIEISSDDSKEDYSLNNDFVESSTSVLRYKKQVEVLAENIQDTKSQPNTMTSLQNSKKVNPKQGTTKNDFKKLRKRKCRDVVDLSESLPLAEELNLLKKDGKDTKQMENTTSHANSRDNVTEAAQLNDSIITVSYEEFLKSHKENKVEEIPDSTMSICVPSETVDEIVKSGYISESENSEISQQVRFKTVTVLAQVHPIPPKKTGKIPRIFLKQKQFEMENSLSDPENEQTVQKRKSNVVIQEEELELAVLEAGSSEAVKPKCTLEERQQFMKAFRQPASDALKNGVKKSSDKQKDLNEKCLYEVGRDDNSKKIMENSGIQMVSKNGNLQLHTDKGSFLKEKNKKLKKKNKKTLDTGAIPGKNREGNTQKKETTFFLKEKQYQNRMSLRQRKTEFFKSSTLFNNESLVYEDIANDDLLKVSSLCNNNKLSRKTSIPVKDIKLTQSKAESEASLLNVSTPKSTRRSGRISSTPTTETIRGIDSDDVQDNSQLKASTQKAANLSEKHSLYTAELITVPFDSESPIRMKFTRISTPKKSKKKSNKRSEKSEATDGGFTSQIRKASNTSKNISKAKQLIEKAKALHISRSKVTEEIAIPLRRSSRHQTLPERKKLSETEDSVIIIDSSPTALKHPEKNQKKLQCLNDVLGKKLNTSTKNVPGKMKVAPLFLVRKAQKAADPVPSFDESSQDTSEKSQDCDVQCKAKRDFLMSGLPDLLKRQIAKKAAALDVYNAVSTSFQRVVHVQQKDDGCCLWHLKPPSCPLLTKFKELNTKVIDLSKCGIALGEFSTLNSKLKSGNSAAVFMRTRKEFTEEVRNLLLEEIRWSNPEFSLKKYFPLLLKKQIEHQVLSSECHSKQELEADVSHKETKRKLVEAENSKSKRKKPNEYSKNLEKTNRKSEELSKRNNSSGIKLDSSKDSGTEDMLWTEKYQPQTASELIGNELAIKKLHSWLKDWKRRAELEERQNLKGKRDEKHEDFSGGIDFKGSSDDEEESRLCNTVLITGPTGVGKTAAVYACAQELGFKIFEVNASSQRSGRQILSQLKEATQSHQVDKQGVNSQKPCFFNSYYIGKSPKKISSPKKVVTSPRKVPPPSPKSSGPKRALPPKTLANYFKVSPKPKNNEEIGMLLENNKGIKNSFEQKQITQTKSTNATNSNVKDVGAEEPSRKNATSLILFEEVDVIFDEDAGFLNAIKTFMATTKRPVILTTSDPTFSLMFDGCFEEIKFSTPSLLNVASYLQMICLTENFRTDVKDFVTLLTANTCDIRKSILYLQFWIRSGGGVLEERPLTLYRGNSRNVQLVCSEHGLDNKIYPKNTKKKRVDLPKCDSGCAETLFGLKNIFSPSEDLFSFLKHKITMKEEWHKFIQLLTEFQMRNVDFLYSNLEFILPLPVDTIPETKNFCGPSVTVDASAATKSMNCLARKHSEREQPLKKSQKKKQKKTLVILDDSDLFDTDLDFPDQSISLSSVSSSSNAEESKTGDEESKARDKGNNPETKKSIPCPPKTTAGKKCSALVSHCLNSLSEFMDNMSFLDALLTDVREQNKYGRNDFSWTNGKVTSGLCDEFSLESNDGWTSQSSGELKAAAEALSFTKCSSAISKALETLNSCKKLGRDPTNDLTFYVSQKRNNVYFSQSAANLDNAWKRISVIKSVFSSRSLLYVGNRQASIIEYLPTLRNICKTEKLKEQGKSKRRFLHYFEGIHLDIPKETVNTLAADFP
# UniProt O15648: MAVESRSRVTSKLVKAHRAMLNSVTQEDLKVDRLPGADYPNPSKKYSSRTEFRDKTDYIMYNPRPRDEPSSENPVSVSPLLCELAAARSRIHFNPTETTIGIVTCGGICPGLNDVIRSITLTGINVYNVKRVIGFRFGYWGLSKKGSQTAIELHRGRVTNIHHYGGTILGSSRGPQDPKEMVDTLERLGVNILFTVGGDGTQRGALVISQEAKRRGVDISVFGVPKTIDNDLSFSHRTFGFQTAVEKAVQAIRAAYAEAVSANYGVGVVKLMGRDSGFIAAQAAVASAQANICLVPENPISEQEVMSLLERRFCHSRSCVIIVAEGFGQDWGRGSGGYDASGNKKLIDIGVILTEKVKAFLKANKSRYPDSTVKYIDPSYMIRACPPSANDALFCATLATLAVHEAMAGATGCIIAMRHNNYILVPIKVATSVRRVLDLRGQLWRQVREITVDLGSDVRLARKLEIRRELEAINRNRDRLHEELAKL
# The inconclusive results got no clear call from the source; some entries with a clear call stand among them for comparison. A potency beside an inconclusive call is a rough fit, not a confirmed value. The source made the active and inactive calls. Unless noted, the call rests on the fitted dose curve; in most records, active means well fitted curve in the direction sought with a large enough effect; inconclusive means small, poorly fitted or top-dose-only effect, or another doubt; inactive means no such curve, though single readings can be large; an effect the other way counts as inactive or inconclusive.
# What was measured:
# [1] = target: Thyrotropin receptor (Homo sapiens) (UniProt P16473); experiment: qHTS Assay for Antagonists of the Thyroid Stimulating Hormone Receptor (AID 488980); conditions: TSHR-expressing cells, cAMP antagonist read-out
# Procedure, shortened: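 HEK293 cells transfected with human TSHR, suspended in HEPES-buffered HBSS with 70 uM RO 20-1724, were treated with compounds plus TSH at EC80 (4 nM final). cAMP was measured by competitive HTRF (cryptate anti-cAMP antibody, cAMP-d2 acceptor).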
# [2] = Nrf2 qHTS screen for inhibitors: Validation (AID 493153; active means well fitted inhibition curve with a large enough effect in the main read-out, with a control signal flat, not every such curve was filed as active; inconclusive means small, poorly fitted or top-dose-only effect, or effect the other way, or a change in a side signal; inactive means no such curve, though single readings can be large or run the other way; further: potency means the concentration at half of the fitted maximal effect); conditions: A549 ARE-Fluc reporter, luciferase luminescence, 18-24 h; series mostly up to 46.1 µM
# Procedure, shortened: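 In this counterscreened reporter format, each well gives two signals: CellTiter-Fluor fluorescence for cytotoxicity and ARE-luciferase luminescence for Nrf2 function. A549 ARE_Fluc cells in 5% FBS OPTI-MEM were exposed to compound titrations for 18-24 h.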
# [3] = qHTS for Inhibitors of Cell Surface uPA Generation: Validation Assay (AID 493164); conditions: mouse cells, plasminogen activation
# Text: NIH Chemical Genomics Center [NCGC]
# NIH Molecular Libraries Probe Centers Network [MLPCN]
# Assay Submitter (PI): Thomas Bugge
# The overall objective of this project is to perform a quantitative high throughput screen (qHTS) to identify novel compounds that inhibit the generation of cell surface urokinase activity. The urokinase plasminogen activator (uPA) is one of the two primary endogenous systems that mediate plasminogen activation into plasmin. Members of this system, including uPA and its receptor (uPAR), are overexpressed in several malignant tumors. This system plays a major role in adhesion, migration, invasion and metastasis of cancer cells. Small molecule inhibitors of the uPA system will serve as probes to understand the molecular mechanisms of the uPA cascade and better understanding the microenvironmental circumstances that facilitate the activation of plasminogen by uPA, and finally may provide novel candidate agents for anticancer drug therapy.
# […] […] Upon inhibition of the uPA activation cascade, the subsequent cell surface uPA activity-dependent translocation of LF into the cytoplasm is inhibited. ATP-Lite is used to measure intracellular ATP concentrations, which remain increased if LF entry into the cytoplasm is inhibited. This validation assay was performed using a small set of validation compounds. […]
# 7.Reading plates by ViewLux with an exposure length of 5 seconds.
# [4] = target: ATPase family AAA domain-containing protein 5 (Homo sapiens) (UniProt Q96QE3); experiment: Validation screen for small molecules that inhibit ELG1-dependent DNA repair in human embryonic kidney (HEK293T) cells expressing luciferase-tagged ELG1 (AID 493107); conditions: HEK293T ELG1-luciferase level, luminescence, 5-fluorouridine co-treatment, 16 h; series mostly up to 46.1 µM; further: nearly all actives have a fitted effect of over 70% in size; further: potency means the concentration at half of the fitted maximal effect
# Procedure, shortened: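 Compounds reducing 5-fluorouridine-driven ELG1-luciferase signal in HEK293T cells were scored; exposure lasted 16 hr at 37 °C with luminescence detected via ONE-Glo.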
# [5] = Validation screen for small molecules that induce genotoxicity in human embryonic kidney (HEK293T) cells expressing luciferase-tagged ELG1 (AID 493106); conditions: luminescence; series mostly up to 46.1 µM; further: potency means the concentration at half of the fitted maximal effect
# Procedure, shortened: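 In this validation screen, increased ELG1-luciferase signal flags compounds causing genetic stress. HEK293T reporter cells are treated 16 hr (37 °C, 5% CO2), developed with ONE-Glo for 30 min at room temperature, and imaged on a CCD-based reader.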
# [6] = target: ATP-dependent 6-phosphofructokinase (Trypanosoma brucei brucei) (UniProt O15648); experiment: qHTS Assay to Find Inhibitors of T. brucei phosphofructokinase: hit validation (AID 492961); further: potency means the concentration at half of the fitted maximal effect; conditions: T. brucei PFK, ADP-Glo luminescence; series mostly up to 51.4 µM
# Procedure, shortened: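 ADP-Glo luminescence read-out of ADP formed by 1.25 nM PFK from 0.1 mM ATP and 0.5 mM F6P (TEA pH 8.0, 45 min, RT). Compounds titrated; activity normalized to no-enzyme and full-enzyme controls.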
structure (smiles),measurement,setting,value
C[n+]1cc2c3c(ccc2c2ccc4cc5c(cc4c21)OCO5)OCO3,Potency,[1],"inconclusive: 30.1 µM [inhibitor, single point]"
CC(C(O)c1ccc(O)cc1)N1CCC(Cc2ccccc2)CC1 (stereo unspecified),Potency,[2],inactive
CC(C)C[C@H](NC(=O)[C@@H](O)[C@H](N)Cc1ccccc1)C(=O)O,Potency,[2],"inconclusive: 8.2 µM [inhibitor, single point]"
same,Potency,[3],"inconclusive: 16.5 µM [inhibitor, partial curve, poor fit]"
CCN1CCc2nc(N)oc2CC1,Potency,[4],inactive
CN(C(=O)CCCOc1ccc2[nH]c(=O)ccc2c1)C1CCCCC1,Potency,[5],"inconclusive: 8.2 µM [activator, partial curve, poor fit]"
same,Potency,[4],"inconclusive: 16.4 µM [activator, partial curve, poor fit]"
same,Potency,[2],"inconclusive: 4.11 µM [inhibitor, full curve, poor fit]"
NS(=O)(=O)c1cc2c(cc1Cl)NC(CSCc1ccccc1)=NS2(=O)=O,Potency,[6],inactive
CN(C)CCCN1c2ccccc2Sc2ccc(Cl)cc21,Potency,[4],"inconclusive: 29.1 µM [inhibitor, single point]"
C[C@@H](N)C1CCC(C(=O)Nc2ccncc2)CC1 (stereo partly specified),Potency,[4],"inconclusive: 20.6 µM [inhibitor, single point]"
Oc1ccc(C(O)CNCCCCCCNCC(O)c2ccc(O)c(O)c2)cc1O (stereo unspecified),Potency,[6],"inconclusive: 0.708 µM [falling, full curve, poor fit]"
O=S(=O)(O)CC(S)CS (stereo unspecified),Potency,[6],"inconclusive: 12.6 µM [activator, partial curve]"
COc1cc2ncnc(Nc3cccc(Cl)c3)c2cc1OC,Potency,[4],"inconclusive: 29.1 µM [inhibitor, single point]"
same,Potency,[2],"inconclusive: 29.1 µM [inhibitor, partial curve, poor fit]"
Clc1ccc2c(c1)C(N1CCNCC1)=Nc1ccccc1O2,Potency,[4],inactive
same,Potency,[2],"inconclusive: 29.1 µM [inhibitor, single point]"
CCC(=O)c1ccc2c(c1)N(CCCN(C)C)c1ccccc1S2,Potency,[5],inactive
COc1cc(NS(C)(=O)=O)ccc1Nc1c2ccccc2nc2ccccc12,Potency,[5],"inconclusive: 20.6 µM [activator, single point]"
same,Potency,[4],active: 14.6 µM
O=S(=O)(O)c1ccc2c(N=Nc3ccc(S(=O)(=O)O)c4ccccc34)c(O)c(S(=O)(=O)O)cc2c1,Potency,[6],"inconclusive: 2 µM [activator, full curve, poor fit]"
COc1ccc(C2C(=O)c3ccccc3C2=O)cc1,Potency,[6],inactive
CC#C[C@]1(O)CC[C@H]2[C@@H]3CCC4=CC(=O)CCC4=C3[C@@H](c3ccc(N(C)C)cc3)C[C@@]21C,Potency,[4],"inconclusive: 29.1 µM [inhibitor, single point]"
same,Potency,[2],active: 23.1 µM
N[C@H](Cc1c[nH]c2ccccc12)C(=O)O,Potency,[6],"inconclusive: 11.2 µM [falling, partial curve, poor fit]"
CC(=O)[C@]1(O)Cc2c(O)c3c(c(O)c2[C@@H](O[C@H]2C[C@H](N)[C@H](O)[C@H](C)O2)C1)C(=O)c1c(O)cccc1C3=O,Potency,[6],"inconclusive: 31.6 µM [activator, partial curve]"
NNCCc1ccccc1,Potency,[5],"inconclusive: 13 µM [activator, single point]"
same,Potency,[4],"inconclusive: 11.6 µM [activator, partial curve]"
Nc1ccn([C@@H]2O[C@H](CO)[C@@H](O)C2O)c(=O)n1 (stereo partly specified),Potency,[4],inactive
same,Potency,[2],"inconclusive: 0.231 µM [falling, full curve]"
Cc1cc2c(C(C)C)c(O)c(O)c(C=O)c2c(O)c1-c1c(C)cc2c(C(C)C)c(O)c(O)c(C=O)c2c1O,Potency,[5],inactive
C[C@]12C[C@H](O)[C@H]3[C@@H](CCC4=CC(=O)CC[C@@]43C)[C@@H]1CC[C@@H]2C(=O)CO,Potency,[2],active: 6.51 µM
IC(I)I,Potency,[6],"inconclusive: 22.4 µM [falling, partial curve, poor fit]"
COc1cc(C(=O)OCCCN2CCCN(CCCOC(=O)c3cc(OC)c(OC)c(OC)c3)CC2)cc(OC)c1OC,Potency,[5],active: 16.4 µM
same,Potency,[4],"inconclusive: 0.0164 µM [inhibitor, full curve, poor fit]"
C[C@]12C=CC(=O)C=C1CC[C@H]1[C@@H]3C[C@@H](O)[C@](O)(C(=O)CO)[C@@]3(C)C[C@H](O)[C@@]12F,Potency,[2],active: 0.082 µM

# Reformatted: results already given.
structure (smiles) | measurement | setting | value
O=S(=O)(O)CC(S)CS (stereo unspecified) | Potency | [6] | inconclusive: 12.6 µM [activator, partial curve]
COc1cc2ncnc(Nc3cccc(Cl)c3)c2cc1OC | Potency | [4] | inconclusive: 29.1 µM [inhibitor, single point]
same | Potency | [2] | inconclusive: 29.1 µM [inhibitor, partial curve, poor fit]
Clc1ccc2c(c1)C(N1CCNCC1)=Nc1ccccc1O2 | Potency | [4] | inactive
same | Potency | [2] | inconclusive: 29.1 µM [inhibitor, single point]
CCC(=O)c1ccc2c(c1)N(CCCN(C)C)c1ccccc1S2 | Potency | [5] | inactive
COc1cc(NS(C)(=O)=O)ccc1Nc1c2ccccc2nc2ccccc12 | Potency | [5] | inconclusive: 20.6 µM [activator, single point]
same | Potency | [4] | active: 14.6 µM
O=S(=O)(O)c1ccc2c(N=Nc3ccc(S(=O)(=O)O)c4ccccc34)c(O)c(S(=O)(=O)O)cc2c1 | Potency | [6] | inconclusive: 2 µM [activator, full curve, poor fit]
COc1ccc(C2C(=O)c3ccccc3C2=O)cc1 | Potency | [6] | inactive
